Results on one molecule are retold here after publication PMC12514197.

The assay addresses T1, beta dystroglycan chain of recombinant prodystroglycan (human) (UniProt Q14118).
T1 sequence: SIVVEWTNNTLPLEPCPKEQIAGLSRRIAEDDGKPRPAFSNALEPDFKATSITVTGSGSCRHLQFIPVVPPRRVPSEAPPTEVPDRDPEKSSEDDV
The experiment in a line: nickel affinity co-purification; secreted prodystroglycan purified from the media on Ni-NTA / His60 Ni IMAC resin by the C-terminal His6 tag of the beta chain; alpha chain followed by Coomassie stain and anti-DGN blot.

Results are given in words; binding and its absence hold for the method and conditions named. Some binding calls cover weakened binding; strength is not graded here.

B1: alpha dystroglycan chain of recombinant prodystroglycan (domain or fragment, UniProt Q14118 28-653)
chain: QSHWPSEPSEAVRDWENQLEASMHSVLSDLHEAVPTVVGIPDGTAVVGRSFRVTIPTDLIASSGDIIKVSAAGKEALPSWLHWDSQSHTLEGLPLDTDKGVHYISVSATRLGANGSHIPQTSSVFSIEVYPEDHSELQSVRTASPDPGEVVSSACAADEPVTVLTVILDADLTKMTPKQRIDLLHRMRSFSEVELHNMKLVPVVNNRLFDMSAFMAGPGNAKKVVENGALLSWKLGCSLNQNSVPDIHGVEAPAREGAMSAQLGYPVVGWHIANKKPPLPKRVAAQIHATPTPVTAIGPPTTAIQEPPSRIVPTPTSPAIAPPTETMAPPVRDPVPGKPTVTIRTRGAIIQTPTLGPIQPTRVSEAGTTVPGQIRPTMTIPGYVEPTAVATPPTTTTKKPRVSTPKPATPSTDSTTTTTRRPTKKPRTPRPVPRVTTKVSITRLETASPPTRIRTTTSGVPRGGEPNQRPELKNHIDRVDAWVGTYFEVKIPSDTFYDHEDTTTDKLKLTLKLREQQLVGEKSWVQFNSNSQLMYGLPDSSHVGKHEYFMHATDKGGLSAVDAFEIHVHRRPQGDRAPARFKAKFVGDPALVLNDIHKKIALVKKLAFAFGDRNCSTITLQNITRG
modifications: heavily and heterogeneously O-glycosylated mucin-like domain
For the molecule B1, the binding entry is given as “binds”.
